Measurements as given in patent US20020182172A1, “Water-soluble polymer conjugates of triazine derivatives” (Shearwater Corporation, priority 2000, published 2002).
At least one read-out could not be matched to a standard name with certainty.

Assay: Stability study in D2O (formaldehyde release monitored by NMR; MALDI-TOF of hydrolyzed product)
Conditions: 6 mg in 0.75 ml D2O, stored at 37° C., 300 MHz NMR, first order kinetics
Description: Compound III, V, and XIV (6 mg) were separately dissolved in 0.75 ml of D2O and stored at 37° C. The methylene peak disappearance as well as methyl peak shift were monitored by 300 MHz NMR over time. The half-life of the formaldehyde release reaction was monitored using first order kinetics.

## (2-N-mPEG5k-2-N-hydroxymethylamino)-4,6-di(N-methyl-N-hydroxymethyl)-1,3,5-triazine [XIV]
  half-life (t1/2) of the formaldehyde release reaction: 19.4 h
